Binding data for one substance are collected here from paper PMC10507087.

Chains of the proteins cited; added tags and fusions are not shown. Residues count along the entry.
UniProt Q9NZQ7, residues 19-290: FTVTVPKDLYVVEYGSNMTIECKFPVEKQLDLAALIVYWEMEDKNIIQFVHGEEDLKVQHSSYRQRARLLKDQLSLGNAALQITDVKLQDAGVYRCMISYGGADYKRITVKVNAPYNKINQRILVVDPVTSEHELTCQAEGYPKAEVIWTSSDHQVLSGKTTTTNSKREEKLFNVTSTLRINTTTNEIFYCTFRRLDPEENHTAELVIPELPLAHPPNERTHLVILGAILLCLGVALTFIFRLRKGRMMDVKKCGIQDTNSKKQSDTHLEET

The assay addresses T1, activating transcription factor-3 (ATF3) (human (endogenous in E109 and Kyse150)) (UniProt P18847).
T1 sequence: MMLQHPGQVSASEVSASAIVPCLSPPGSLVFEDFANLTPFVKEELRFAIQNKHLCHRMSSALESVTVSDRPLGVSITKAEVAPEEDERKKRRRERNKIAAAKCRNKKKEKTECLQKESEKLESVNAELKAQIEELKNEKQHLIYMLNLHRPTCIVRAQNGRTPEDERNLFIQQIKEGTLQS
Description: co-IP; clarified supernatants of E109 and Kyse150 cells incubated with anti-ATF3 antibody for 4 h at 4 °C, then Protein A/G magnetic beads overnight; five washes with cell lysis buffer; western blot. For orientation: In western blotting, separated proteins are transferred to a membrane and probed.

No constants are given. Whether binding was seen depends on the method and setting. In cells and extracts the contact can be indirect. Some binding calls cover weakened binding; strength is not graded here.

Turning to PD-L1 (from UniProt Q9NZQ7 19-290), the binding entry is recorded as “binds”.
